Experimental data reported in patent US20100260707A1.
Results are given in words; binding and its absence hold for the method and conditions named. Some binding calls cover weakened binding; strength is not graded here.

Sequences of proteins named here, by UniProt entry; tags and fusion partners are left off. A change or cut given only in a name is not applied to a line headed by its entry. A line that says so, or that is headed by a name, gives the form on record, which may keep a tag or linker.
ED-A isoform of human fibronectin (A-FN) in human arthritic specimens (P02751, form named): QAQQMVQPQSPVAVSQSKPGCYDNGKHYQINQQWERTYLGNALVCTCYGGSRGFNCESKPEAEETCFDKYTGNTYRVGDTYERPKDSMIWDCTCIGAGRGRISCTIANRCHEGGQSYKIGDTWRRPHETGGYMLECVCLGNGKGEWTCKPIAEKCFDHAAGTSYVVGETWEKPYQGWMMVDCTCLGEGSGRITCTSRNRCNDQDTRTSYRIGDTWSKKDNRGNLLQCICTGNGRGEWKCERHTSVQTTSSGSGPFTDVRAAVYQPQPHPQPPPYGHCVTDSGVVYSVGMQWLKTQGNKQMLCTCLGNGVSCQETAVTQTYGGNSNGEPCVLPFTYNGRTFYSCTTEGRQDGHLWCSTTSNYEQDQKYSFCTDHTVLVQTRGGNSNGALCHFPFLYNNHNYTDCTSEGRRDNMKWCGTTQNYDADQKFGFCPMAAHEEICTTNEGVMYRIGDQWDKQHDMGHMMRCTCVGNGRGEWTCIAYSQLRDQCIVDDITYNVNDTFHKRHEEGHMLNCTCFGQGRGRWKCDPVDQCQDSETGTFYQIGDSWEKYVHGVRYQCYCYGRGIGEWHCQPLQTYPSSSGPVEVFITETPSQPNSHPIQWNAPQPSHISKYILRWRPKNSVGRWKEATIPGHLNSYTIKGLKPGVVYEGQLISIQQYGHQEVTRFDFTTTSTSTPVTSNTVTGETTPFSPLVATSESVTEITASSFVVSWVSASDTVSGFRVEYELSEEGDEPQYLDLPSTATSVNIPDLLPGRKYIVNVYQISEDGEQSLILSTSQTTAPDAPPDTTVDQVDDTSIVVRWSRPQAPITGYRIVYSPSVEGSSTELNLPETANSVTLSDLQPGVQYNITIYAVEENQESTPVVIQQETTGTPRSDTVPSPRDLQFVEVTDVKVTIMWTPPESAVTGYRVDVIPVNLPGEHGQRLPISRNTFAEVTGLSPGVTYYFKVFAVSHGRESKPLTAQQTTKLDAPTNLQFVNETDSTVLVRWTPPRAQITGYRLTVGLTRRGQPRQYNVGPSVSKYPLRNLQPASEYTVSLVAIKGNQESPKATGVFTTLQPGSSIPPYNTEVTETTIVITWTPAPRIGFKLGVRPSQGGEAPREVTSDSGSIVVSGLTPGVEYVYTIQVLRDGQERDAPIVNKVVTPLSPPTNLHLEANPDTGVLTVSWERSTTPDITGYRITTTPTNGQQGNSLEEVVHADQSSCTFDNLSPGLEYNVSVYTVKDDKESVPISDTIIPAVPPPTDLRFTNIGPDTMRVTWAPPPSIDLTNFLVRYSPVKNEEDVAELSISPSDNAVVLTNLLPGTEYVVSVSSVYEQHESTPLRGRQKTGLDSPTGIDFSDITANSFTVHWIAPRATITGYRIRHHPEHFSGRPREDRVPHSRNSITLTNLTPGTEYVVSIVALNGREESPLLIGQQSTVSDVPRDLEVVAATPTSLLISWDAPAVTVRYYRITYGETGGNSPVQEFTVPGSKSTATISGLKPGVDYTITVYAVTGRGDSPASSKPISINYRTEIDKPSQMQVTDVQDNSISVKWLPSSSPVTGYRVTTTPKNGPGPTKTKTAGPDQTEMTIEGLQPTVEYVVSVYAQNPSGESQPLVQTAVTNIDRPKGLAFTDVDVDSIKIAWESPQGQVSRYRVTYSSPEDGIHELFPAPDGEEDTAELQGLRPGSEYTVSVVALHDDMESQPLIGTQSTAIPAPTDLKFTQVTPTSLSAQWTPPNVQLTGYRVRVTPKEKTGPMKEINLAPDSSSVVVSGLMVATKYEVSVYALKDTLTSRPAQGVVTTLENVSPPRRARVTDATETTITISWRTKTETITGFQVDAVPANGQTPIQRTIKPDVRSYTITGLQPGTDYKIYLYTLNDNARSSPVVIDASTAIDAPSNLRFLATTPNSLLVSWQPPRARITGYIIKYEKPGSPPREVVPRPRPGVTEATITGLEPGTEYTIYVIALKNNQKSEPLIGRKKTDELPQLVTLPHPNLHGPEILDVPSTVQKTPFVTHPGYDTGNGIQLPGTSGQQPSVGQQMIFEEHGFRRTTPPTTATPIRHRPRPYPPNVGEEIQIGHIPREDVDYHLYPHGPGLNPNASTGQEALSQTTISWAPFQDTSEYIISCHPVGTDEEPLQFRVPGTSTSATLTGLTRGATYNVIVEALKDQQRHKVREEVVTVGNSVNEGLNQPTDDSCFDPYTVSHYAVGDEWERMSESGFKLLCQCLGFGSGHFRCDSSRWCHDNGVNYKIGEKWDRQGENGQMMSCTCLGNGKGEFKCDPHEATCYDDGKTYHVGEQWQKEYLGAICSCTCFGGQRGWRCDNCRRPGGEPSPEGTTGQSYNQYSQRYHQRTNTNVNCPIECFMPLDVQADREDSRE

How the values were obtained:
[1] = target: ED-A isoform of human fibronectin (A-FN) in human arthritic specimens (human) (UniProt P02751); assay: immunohistochemistry on frozen sections of human arthritic specimens, myc-tagged scFv at 10 ug/ml
[2] = target: ED-A isoform of human fibronectin (A-FN) in human arthritic specimens (human) (UniProt P02751); assay: immunofluorescence on frozen sections of human arthritic specimens, myc-tagged scFv at 10 ug/ml

B1: anti-ED-A antibody F8 (scFv)
scFv: EVQLVESGGGLVQPGGSLRLSCAASGFTFSLFTMSWVRQAPGKGLEWVSAISGSGGSTYYADSVKGRFTISRDNSKNTLYLQMNSLRAEDTAVYYCAKSTHLYLFDYWGQGTLVTVSSGGGGSGGGGSGGGGSGGGGSEIVLTQSPGTLSLSPGEKATLSCRASQSVSMPFLAWYQQKPGQAPRLLIYGASSRATGIPDRFSGSGSGTDFTLTISRLEPEDFAVYYCQQMRGRPPTFGQGTKVEIKAAAEQKLISEEDLNGAA
For B1, which binding [1] is on record?
The binding was “binds”.

What about the binding [2] of the same binder?
The binding was “binds”.
